Here are results for one molecule from CN107522783A.

The target of the assay is Recombinant marmoset IL-17A (Sino Biological, 90287-CNAE-100) (marmoset). Put plainly: indirect ELISA, species cross-reactivity.

No constants are given. Whether binding was seen depends on the method and setting. Some binding calls cover weakened binding; strength is not graded here.

B1: 嵌合抗体 (antibody, V domains shown)
VH: QVQLQQSGPEVVRPGVSVKISCKGSGYTFTDYAMHWVKQSHAKSLEWIGVIGPYNDNTNYNQKFKGKATMTVDKSSSTAYMEIARLTSEDSAIYYCARGERYFDYWGQGTTLTVSS
VL: DIQMTQSSSYLSVSLGGRVTITCRASDHINNWLAWYQQKPGNAPRLLIYGATSLETGVPSRFSGSGSGKDYTLSITSLQTEDVATYYCQQYWTIPLTFGAGTKLELK
For B1, the binding result is “binds”.
